Some of the results follow. Single values are uncertain, as repeats are few or missing.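 The cells are hepatocyte-like cells grown from human stem cells in which the DGUOK gene was disrupted by CRISPR, a model of liver mtDNA depletion syndrome. Each well's ATP signal was scored against the other wells on its plate, and a drug counted as a primary hit when its score was 3 or higher.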

The test has as its system DGUOK Δ14/Δ5 iPSC-derived hepatocyte-like cells (SV20). Put plainly: ATP level (CellTiter-Glo luminescence) Z score relative to plate distribution, under 2-DG glycolysis block; higher = more cellular ATP (rescue of mitochondrial ATP production). The settings on record: 5 µM; treatment time: day 15 to day 20 of differentiation (5 days); 2-deoxy-D-glucose: 20 mM for 24 h before assay.
With `O=c1cc(-c2ccccc2)oc2ccc(O)cc12`, the ATP level is inactive: 1.75.
Then `Nc1ncnc2c1ncn2[C@H]1C[C@H](O)[C@@H](CO)O1`, with inactive: 1.77; and `Nc1ccc(S(N)(=O)=O)cc1`, with inactive: 0.865.
Then `CCCCCCCCCCCCC(C(=O)O)C(C)C(=O)O` (stereo unspecified), with inactive: 2.01.
Consider `COc1ccc2c(c1)OCC(Cc1ccc(OC)c(OC)c1)C2=O` (stereo unspecified), for which the ATP level is inactive: -1.23.
Consider `COc1ccc([C@H]2Oc3cc(OC)cc(OC)c3C[C@H]2O)cc1`, for which the ATP level was inactive: -4.05.
Then `CCC(C)(C)c1ccc(CC(C)CN2C[C@@H](C)O[C@@H](C)C2)cc1` (stereo partly specified), with inactive: 2.37.
On to `CC[C@]12CCCN3CCc4c(n(c5ccccc45)[C@@](O)(C(=O)OC)C1)[C@@H]32`, for which the ATP level is inactive: -0.401.
Take `CC(=O)c1ccc2c(c1)N(CCCN1CCN(CCO)CC1)c1ccccc1S2`: the ATP level is inactive: -3.66.
Regarding `O=c1c(O)c(-c2ccccc2)oc2cc(O)cc(O)c12`, the ATP level is inactive: -3.07.
For `O=C(O)c1cc(=O)c2c(OCC(O)COc3cccc4oc(C(=O)O)cc(=O)c34)cccc2o1`, the ATP level was inactive: -2.05.
In the case of `Oc1c(Cl)cc(Cl)cc1Sc1cc(Cl)cc(Cl)c1O`, the ATP level is inactive: -3.4.
Take `C=CCc1ccccc1OCC(O)CNC(C)C` (stereo unspecified): the ATP level is inactive: -2.85.
In the case of `CCCCOc1ccc(CC(=O)NO)cc1`, the ATP level was inactive: 0.0339.
As for `CC(=O)OC(C)C[N+](C)(C)C` (stereo unspecified), the ATP level is inactive: 0.94.
For the compound `CCCCC[C@H](CC(=O)NO)C(=O)N[C@H](C(=O)N1CCC[C@H]1CO)C(C)C`, the ATP level was inactive: -8.27.
For `Nc1nc(=O)c2c([nH]1)NCC(CNc1ccc(C(=O)N[C@@H](CCC(=O)O)C(=O)O)cc1)N2C=O` (stereo partly specified), the ATP level was inactive: 1.8.
In the case of `COc1ccc2nc3cc(Cl)ccc3c(Nc3cc(CN4CCCC4)c(O)c(CN4CCCC4)c3)c2n1`, the ATP level was inactive: -5.93.
Then `CC(C)CCC[C@@H](C)[C@H]1CC[C@H]2[C@@H]3CC=C4C[C@@H](O)CC[C@]4(C)[C@H]3CC[C@]12C`, with inactive: 0.74; and `O=C(O)/C=C/C=C/c1ccc2c(c1)OCO2`, with inactive: -1.04.
Take `Nc1ccn([C@@H]2O[C@H](CO)[C@@H](O)[C@H]2O)c(=O)n1`: the ATP level was inactive: -1.73.
Regarding `C=CC(C1=CC(=O)C(OC)=CC1=O)c1ccc(O)cc1` (stereo unspecified), the ATP level was inactive: -1.92.
With `CN(C)CCC(c1ccccc1)c1ccccn1` (stereo unspecified), the ATP level was inactive: 1.54.
In the case of `O=C(/C=C/c1ccc(O)cc1)c1ccccc1`, the ATP level is inactive: 1.42.
Regarding `CC[C@]1(O)C[C@@H]2CN(CCc3c([nH]c4ccccc34)[C@@](C(=O)OC)(c3cc4c(cc3OC)N(C)[C@H]3[C@@](O)(C(=O)OC)[C@H](OC(C)=O)[C@]5(CC)C=CCN6CC[C@]43[C@@H]65)C2)C1`, the ATP level was inactive: -0.268.
On to `Oc1cc(O)c2c(c1)O[C@H](c1cc(O)c(O)c(O)c1)[C@H](O)[C@H]2c1c(O)cc(O)c2c1O[C@H](c1cc(O)c(O)c(O)c1)[C@H](O)[C@H]2c1c(O)cc(O)c2c1O[C@H](c1cc(O)c(O)c(O)c1)[C@H](O)C2`, for which the ATP level was inactive: -0.137.
Consider `CCN(CCCc1ccccc1)CCCc1ccccc1`, for which the ATP level was inactive: 0.679.
With `CCCCC(CC)COC(=O)c1ccccc1O` (stereo unspecified), the ATP level was inactive: 1.49.
Then `CC(=O)[C@H]1CC[C@H]2[C@@H]3CC=C4C[C@@H](OC(=O)CCC(=O)O)CC[C@]4(C)[C@H]3CC[C@]12C`, with inactive: 1.96.
As for `CC(CCc1ccc(O)cc1)NCC(O)c1ccc(O)cc1` (stereo unspecified), the ATP level is inactive: 1.32.
In the case of `O=P(O)(O)C(O)(Cc1cccnc1)P(=O)(O)O`, the ATP level is inactive: 1.6.
For the compound `COc1ccc(-n2nc(CCC(=O)N(C)O)cc2-c2ccc(Cl)cc2)cc1`, the ATP level was inactive: -8.75.
As for `NCCCCCN`, the ATP level was inactive: 0.0508.
Take `CCN(CC)C(=O)N1CCN(C)CC1`: the ATP level was inactive: -2.99.
In the case of `O=C(O)c1cc(O)c(O)c(O)c1`, the ATP level was inactive: -5.74.
Then `CC(C)=CCC/C(C)=C/COc1ccc2ccc(=O)oc2c1`, with inactive: -3.86; and `COc1c(OC)c2occc2c2oc(=O)ccc12`, with inactive: 2.44; and `Cc1cc(CC(C)CC(C)(C)C)n(O)c(=O)c1` (stereo unspecified), with inactive: -11.1.
Then `O=S(=O)(O)CCSSCCS(=O)(=O)O`, with inactive: -2.28; and `CN1CCC[C@H]1c1cccnc1`, with inactive: -0.846.
With `CCCC(C(=O)OCCN(CC)CC)(c1ccccc1)c1ccccc1`, the ATP level was inactive: -0.823.
As to `C[C@H](CCC(=O)NCC(=O)O)[C@H]1CC[C@H]2[C@@H]3[C@H](O)C[C@@H]4C[C@H](O)CC[C@]4(C)[C@H]3C[C@H](O)[C@]12C`, the ATP level was inactive: 2.59.
Take `Clc1ccc(COC(Cn2ccnc2)c2ccc(Cl)cc2Cl)cc1` (stereo unspecified): the ATP level is inactive: -1.14.
Then `NC(=O)NO`, with inactive: 1.28; and `Clc1ccccc1C(c1ccccc1)(c1ccccc1)n1ccnc1`, with inactive: -6.13.
Then `CO/N=C1\CN(c2nc3c(cc2F)c(=O)c(C(=O)O)cn3C2CC2)CC1CN` (stereo unspecified), with inactive: -1.11.

The values are drawn from the supplement of paper PMC6289059.
